Data as given in the M2OR odorant receptor database.
Changes are numbered by the printed parent chain. The list shows a part of the results, in another mix than the full data. Calls are pooled over several reports, among them a noisy single-well screen. Some of the results follow.

Chains of the proteins cited; added tags and fusions are not shown. A line that says so, or that is headed by a name, gives the form on record, which may keep a tag or linker.
O4F17, as listed by the source: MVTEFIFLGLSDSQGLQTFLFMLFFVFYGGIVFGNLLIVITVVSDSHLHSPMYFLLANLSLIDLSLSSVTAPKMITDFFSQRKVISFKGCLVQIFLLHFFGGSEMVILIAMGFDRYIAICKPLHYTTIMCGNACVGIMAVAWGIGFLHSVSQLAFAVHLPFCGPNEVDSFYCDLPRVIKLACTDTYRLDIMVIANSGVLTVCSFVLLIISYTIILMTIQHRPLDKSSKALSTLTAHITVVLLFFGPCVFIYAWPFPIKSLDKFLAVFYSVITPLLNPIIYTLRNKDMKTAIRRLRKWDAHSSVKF
O4C46, as listed by the source: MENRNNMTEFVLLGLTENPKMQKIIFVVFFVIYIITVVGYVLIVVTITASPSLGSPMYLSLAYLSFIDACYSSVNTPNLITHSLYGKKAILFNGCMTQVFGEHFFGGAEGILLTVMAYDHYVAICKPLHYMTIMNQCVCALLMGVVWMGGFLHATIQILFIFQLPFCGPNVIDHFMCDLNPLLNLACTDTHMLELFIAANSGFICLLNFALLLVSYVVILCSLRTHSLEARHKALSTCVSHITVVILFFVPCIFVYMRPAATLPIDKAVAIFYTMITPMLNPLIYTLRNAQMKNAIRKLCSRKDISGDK
O4A15, as listed by the source: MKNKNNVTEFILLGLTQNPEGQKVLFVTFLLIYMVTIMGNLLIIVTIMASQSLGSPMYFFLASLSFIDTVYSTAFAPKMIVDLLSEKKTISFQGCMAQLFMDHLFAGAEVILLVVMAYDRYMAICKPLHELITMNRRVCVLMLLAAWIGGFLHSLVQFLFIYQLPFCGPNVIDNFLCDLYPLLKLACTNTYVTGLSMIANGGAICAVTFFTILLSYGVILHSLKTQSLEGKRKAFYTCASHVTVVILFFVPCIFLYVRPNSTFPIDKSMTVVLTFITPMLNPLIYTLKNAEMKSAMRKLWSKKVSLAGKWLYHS

Legend:
Settings in all cases: stereoisomer not certain
O2T11 = tested on: T1, O2T11
T1 sequence (whole entry): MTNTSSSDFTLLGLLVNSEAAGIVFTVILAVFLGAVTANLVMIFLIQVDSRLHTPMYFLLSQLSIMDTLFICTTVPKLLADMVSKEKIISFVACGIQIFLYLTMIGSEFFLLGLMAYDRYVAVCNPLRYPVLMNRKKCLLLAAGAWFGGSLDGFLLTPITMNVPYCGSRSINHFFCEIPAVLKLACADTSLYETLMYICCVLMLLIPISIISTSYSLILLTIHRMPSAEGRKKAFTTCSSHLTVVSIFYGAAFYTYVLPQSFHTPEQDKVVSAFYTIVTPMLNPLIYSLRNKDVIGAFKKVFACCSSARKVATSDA
Summary of the method: (§1)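 Each receptor–molecule pair is labelled responsive or non-responsive (inactive) according to whether the original authors judged the measured signal statistically different from baseline. The data were taken from the main text and supplementary material of published papers and checked for typos and inconsistencies. Assay methods differed by source, with transient luciferase assays in mammalian cell lines being common.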

O2T29 [1] = tested on: T2, O2T29
T2 sequence (whole entry): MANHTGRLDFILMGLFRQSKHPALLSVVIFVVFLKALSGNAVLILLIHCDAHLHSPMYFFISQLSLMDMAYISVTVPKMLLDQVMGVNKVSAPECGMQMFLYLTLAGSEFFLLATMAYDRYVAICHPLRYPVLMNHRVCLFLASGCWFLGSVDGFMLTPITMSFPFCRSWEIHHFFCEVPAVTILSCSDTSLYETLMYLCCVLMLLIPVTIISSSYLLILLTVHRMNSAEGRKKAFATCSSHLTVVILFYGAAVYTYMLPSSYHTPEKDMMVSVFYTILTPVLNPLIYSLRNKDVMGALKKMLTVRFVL
Summary of the method: as §1

O2T29 [2] = tested on: T3, O2T29; remark: listed apart in the source
T3 sequence (whole entry): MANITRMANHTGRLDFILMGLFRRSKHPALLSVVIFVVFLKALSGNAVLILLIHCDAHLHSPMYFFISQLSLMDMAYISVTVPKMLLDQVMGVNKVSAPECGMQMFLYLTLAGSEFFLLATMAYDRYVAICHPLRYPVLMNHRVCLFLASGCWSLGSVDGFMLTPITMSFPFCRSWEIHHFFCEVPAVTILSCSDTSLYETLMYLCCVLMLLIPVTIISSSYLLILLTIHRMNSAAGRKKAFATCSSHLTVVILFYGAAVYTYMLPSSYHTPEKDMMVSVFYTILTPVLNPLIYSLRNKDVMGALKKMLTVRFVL
Summary of the method: as §1

O2T33 = tested on: T4, O2T33
T4 sequence (whole entry): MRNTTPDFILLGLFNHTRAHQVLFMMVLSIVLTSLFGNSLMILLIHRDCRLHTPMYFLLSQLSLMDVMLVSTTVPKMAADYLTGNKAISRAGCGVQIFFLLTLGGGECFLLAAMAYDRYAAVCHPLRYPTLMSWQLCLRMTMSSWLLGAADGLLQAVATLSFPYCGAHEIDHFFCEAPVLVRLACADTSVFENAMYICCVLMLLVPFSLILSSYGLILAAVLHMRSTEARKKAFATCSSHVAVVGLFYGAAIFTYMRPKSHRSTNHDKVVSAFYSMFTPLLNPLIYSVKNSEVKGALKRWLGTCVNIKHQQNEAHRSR
Summary of the method: as §1

O2T34 = tested on: T5, O2T34
T5 sequence (whole entry): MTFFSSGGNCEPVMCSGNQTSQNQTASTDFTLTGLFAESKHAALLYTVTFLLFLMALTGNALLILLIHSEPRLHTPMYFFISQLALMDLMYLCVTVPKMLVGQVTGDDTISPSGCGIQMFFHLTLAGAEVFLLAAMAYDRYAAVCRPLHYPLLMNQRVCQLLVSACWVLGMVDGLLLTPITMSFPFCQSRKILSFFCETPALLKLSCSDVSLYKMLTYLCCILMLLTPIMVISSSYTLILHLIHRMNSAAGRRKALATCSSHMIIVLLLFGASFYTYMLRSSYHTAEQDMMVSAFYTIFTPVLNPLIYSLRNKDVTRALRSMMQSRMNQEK
Summary of the method: as §1

O2T35 = tested on: T6, O2T35
T6 sequence (whole entry): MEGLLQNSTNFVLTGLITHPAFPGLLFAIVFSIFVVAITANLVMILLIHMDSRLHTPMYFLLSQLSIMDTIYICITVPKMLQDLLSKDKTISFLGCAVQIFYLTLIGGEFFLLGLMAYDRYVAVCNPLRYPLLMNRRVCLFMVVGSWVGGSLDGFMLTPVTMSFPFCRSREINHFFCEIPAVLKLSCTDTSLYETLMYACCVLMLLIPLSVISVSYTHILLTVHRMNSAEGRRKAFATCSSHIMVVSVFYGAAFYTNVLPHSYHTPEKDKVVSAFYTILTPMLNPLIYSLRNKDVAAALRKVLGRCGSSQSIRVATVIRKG
Summary of the method: as §1

O4A15 = tested on: O4A15
Summary of the method: as §1

O4A47 = tested on: T7, O4A47
T7 sequence (whole entry): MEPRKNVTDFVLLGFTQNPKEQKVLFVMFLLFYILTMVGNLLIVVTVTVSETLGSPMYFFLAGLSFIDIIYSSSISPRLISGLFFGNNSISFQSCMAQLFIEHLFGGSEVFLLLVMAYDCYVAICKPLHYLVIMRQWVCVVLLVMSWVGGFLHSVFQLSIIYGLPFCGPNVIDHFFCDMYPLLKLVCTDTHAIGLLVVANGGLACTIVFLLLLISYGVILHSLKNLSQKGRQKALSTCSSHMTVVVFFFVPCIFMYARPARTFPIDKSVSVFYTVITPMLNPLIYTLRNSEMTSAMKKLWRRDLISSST
Summary of the method: as §1

O4C46 = tested on: O4C46
Summary of the method: as §1

O4F17 [3] = tested on: T8, O4F17
T8 sequence (whole entry): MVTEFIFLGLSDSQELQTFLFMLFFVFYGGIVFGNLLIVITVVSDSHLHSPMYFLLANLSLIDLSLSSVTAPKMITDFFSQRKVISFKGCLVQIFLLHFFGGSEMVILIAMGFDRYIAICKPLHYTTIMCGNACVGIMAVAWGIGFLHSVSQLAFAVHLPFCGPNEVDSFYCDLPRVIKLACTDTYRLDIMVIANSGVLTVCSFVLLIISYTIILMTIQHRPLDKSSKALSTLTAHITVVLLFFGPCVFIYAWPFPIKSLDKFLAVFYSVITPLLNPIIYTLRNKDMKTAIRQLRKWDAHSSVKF
Summary of the method: as §1

O4F17 [4] = tested on: T9, O4F17; remark: listed apart in the source
T9 sequence (whole entry): T8 sequence (whole entry) with E15G, Q293R
Summary of the method: as §1

O4F21 = tested on: T10, O4F21
T10 sequence (whole entry): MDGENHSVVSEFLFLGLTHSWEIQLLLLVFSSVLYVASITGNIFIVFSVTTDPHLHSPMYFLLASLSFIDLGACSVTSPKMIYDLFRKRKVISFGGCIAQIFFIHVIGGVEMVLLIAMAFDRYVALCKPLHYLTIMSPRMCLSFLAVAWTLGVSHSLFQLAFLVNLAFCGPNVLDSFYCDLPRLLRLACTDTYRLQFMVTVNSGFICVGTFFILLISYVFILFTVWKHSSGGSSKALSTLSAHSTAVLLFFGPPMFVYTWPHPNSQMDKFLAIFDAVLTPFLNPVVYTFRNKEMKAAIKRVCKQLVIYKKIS
Summary of the method: as §1

O51A4 = tested on: T11, O51A4
T11 sequence (whole entry): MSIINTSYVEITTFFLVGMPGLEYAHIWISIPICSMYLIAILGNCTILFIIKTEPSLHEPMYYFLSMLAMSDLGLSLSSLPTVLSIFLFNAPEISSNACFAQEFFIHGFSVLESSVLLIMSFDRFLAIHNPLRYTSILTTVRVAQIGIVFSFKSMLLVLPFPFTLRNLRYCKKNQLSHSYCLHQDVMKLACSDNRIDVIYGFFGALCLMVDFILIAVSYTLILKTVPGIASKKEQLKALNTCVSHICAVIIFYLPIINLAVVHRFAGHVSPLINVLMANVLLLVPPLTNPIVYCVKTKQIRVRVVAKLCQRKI
Summary of the method: as §1

O51B4 = tested on: T12, O51B4
T12 sequence (whole entry): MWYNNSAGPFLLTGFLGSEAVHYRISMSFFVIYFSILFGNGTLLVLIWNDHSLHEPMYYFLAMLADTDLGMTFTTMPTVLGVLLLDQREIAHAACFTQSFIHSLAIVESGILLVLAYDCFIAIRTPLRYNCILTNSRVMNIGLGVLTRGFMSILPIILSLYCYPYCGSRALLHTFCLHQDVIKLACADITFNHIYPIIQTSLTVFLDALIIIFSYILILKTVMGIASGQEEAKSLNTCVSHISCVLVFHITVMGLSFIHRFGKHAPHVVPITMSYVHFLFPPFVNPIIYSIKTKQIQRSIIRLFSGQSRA
Summary of the method: as §1

O51B5 = tested on: T13, O51B5
T13 sequence (whole entry): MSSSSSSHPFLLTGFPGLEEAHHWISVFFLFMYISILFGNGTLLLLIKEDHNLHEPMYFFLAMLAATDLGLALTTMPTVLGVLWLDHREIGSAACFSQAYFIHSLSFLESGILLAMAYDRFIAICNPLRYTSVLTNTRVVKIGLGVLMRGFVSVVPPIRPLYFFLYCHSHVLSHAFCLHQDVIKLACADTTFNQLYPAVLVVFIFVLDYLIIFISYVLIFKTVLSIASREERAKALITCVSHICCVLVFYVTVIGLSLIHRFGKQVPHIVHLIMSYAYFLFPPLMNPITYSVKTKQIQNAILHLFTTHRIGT
Summary of the method: as §1

O51B6 = tested on: T14, O51B6
T14 sequence (whole entry): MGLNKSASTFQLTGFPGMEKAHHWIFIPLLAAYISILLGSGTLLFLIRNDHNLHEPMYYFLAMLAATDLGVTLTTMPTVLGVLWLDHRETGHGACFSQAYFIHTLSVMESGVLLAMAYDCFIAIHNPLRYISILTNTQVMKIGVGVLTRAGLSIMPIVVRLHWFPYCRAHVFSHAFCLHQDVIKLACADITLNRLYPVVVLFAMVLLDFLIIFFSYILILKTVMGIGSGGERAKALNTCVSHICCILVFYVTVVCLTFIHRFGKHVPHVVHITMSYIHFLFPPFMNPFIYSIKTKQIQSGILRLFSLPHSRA
Summary of the method: as §1

O51E1 = tested on: T15, O51E1
T15 sequence (whole entry): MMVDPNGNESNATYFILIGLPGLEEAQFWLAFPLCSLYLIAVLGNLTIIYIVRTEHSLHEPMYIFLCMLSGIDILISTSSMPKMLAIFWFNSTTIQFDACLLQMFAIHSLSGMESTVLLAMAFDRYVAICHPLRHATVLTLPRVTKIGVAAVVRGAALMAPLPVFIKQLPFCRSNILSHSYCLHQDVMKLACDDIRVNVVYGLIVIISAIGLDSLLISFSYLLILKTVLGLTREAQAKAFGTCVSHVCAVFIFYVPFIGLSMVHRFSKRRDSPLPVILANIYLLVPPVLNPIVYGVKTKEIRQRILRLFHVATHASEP
Summary of the method: as §1

O51F1 = tested on: T16, O51F1
T16 sequence (whole entry): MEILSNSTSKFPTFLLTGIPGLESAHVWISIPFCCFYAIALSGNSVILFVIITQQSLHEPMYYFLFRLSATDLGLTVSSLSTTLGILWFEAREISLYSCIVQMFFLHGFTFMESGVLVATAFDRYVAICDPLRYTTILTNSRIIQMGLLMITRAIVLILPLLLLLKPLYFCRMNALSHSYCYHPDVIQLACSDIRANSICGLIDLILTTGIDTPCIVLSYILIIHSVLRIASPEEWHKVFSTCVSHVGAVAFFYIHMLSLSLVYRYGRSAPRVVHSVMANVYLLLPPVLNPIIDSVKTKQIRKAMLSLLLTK
Summary of the method: as §1

O51F2 = tested on: T17, O51F2
T17 sequence (whole entry): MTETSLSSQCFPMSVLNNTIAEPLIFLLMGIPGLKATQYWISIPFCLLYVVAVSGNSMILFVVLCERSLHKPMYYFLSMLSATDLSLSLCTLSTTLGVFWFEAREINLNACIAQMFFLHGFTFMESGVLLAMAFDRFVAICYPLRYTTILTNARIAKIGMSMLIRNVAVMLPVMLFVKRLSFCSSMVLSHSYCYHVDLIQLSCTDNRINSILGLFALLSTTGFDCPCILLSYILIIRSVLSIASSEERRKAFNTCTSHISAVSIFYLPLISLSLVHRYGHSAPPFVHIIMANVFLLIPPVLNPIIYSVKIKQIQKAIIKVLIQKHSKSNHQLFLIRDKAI
Summary of the method: as §1
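Note: active if original authors judged signal statistically different from baseline.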

SMILES	odorant receptor agonist call (O2T11)	odorant receptor agonist call (O2T29 [1])	odorant receptor agonist call (O2T29 [2])	odorant receptor agonist call (O2T33)	odorant receptor agonist call (O2T34)	odorant receptor agonist call (O2T35)	odorant receptor agonist call (O4A15)	odorant receptor agonist call (O4A47)	odorant receptor agonist call (O4C46)	odorant receptor agonist call (O4F17 [3])	odorant receptor agonist call (O4F17 [4])	odorant receptor agonist call (O4F21)	odorant receptor agonist call (O51A4)	odorant receptor agonist call (O51B4)	odorant receptor agonist call (O51B5)	odorant receptor agonist call (O51B6)	odorant receptor agonist call (O51E1)	odorant receptor agonist call (O51F1)	odorant receptor agonist call (O51F2)
C=CCSCC=C	inactive	inactive	inactive	inactive	inactive	inactive	inactive	inactive	inactive	inactive	inactive	inactive	inactive	inactive	inactive	inactive	active	inactive	inactive
CCCCCCCCCC=O	inactive	inactive	inactive	inactive	inactive	inactive	inactive	inactive	inactive	inactive	inactive	inactive	inactive	inactive	inactive	inactive	inactive	inactive	inactive
O=C1CCCCCCCCCCCC(=O)OCCO1	inactive	inactive	inactive	active	inactive	active	inactive	inactive	inactive	inactive	active	inactive	inactive	inactive	inactive	active	inactive	inactive	inactive
CCCCCCOC(=O)CCC	inactive	inactive	inactive	inactive	inactive	inactive	inactive	inactive	inactive	inactive	inactive	inactive	inactive	inactive	inactive	inactive	inactive	inactive	inactive
